Data as given in PubChem BioAssay AID1259308 (NCATS, 2017).

Purpose: 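Candidate targets for better recombinant protein yield in mammalian cells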 (primary screen)
Cells: human HEK293 embryonic kidney cells stably expressing firefly luciferase (HEK-CMV-Luc2-Hygro)
Knock-down reagent: single siRNA against human genes, 0.8 pmol siRNA per well
Timing: 72 h
Read-out: 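Luciferase light (ONE-Glo) measured on one replicate plate set and viability (CellTiter-Glo) on the other, scaled to a negative control siRNA, with robust z-scores and luciferase per cell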
Scale: total luciferase, z-score and total luciferase, % of control: higher = more reporter protein produced; luciferase per cell, z-score: higher = more reporter output per viable cell; viable cells, % of control: higher = more viable cells
Active means: 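An siRNA counts as active if its total luciferase robust z-score exceeds 3; genes with two or more such siRNAs out of three were retested with fresh siRNAs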
Calls: active = raised luciferase; inactive = no rise
Here is a random part of about 59,000 reagents. About 1,510 of all reagents (2.6%) count as active. 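Calls use total luciferase alone and ignore viability, so some active siRNAs may act by altering cell number.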 Entries without a mark were called inactive. The numbers tell different reagents against one gene apart.

| target gene | reagent | total luciferase, z-score | total luciferase, % of control | luciferase per cell, z-score | viable cells, % of control |
| --- | --- | --- | --- | --- | --- |
| ERCC8 | 1 | 0.494 | 91.7 | 0.943 | 79.9 |
| ERCC8 | 2 | 3.56 (active) | 153 | 2.21 | 95.3 |
| ERCC8 | 3 | -0.902 | 63.9 | -1.01 | 93.2 |
| UPK3B | 1 | 0.863 | 99 | 0.787 | 90 |
| UPK3B | 2 | 3.02 (active) | 142 | 2.66 | 78.6 |
| UPK3B | 3 | 1.99 | 121 | 2.96 | 62.3 |
| TEX56P | 1 | 0.687 | 95.5 | 2.46 | 55.8 |
| TEX56P | 2 | 3.59 (active) | 153 | 3.54 | 67.5 |
| TEX56P | 3 | -0.552 | 70.9 | -0.266 | 85 |
| MZT2B | 1 | -0.263 | 76.7 | 0.131 | 82.8 |
| MZT2B | 2 | 0.125 | 84.4 | 0.0269 | 93.6 |
| MZT2B | 3 | -0.146 | 79 | -0.399 | 98 |
| MRPL38 | 1 | 0.208 | 86 | 0.427 | 85.9 |
| MRPL38 | 2 | -1.35 | 55.1 | -1.27 | 86.1 |
| MRPL38 | 3 | -0.301 | 75.9 | 0.374 | 76.9 |
| TMX1 | 1 | 0.605 | 93.9 | 0.664 | 88.1 |
| TMX1 | 2 | 0.609 | 94 | 0.621 | 89.2 |
| TMX1 | 3 | 0.706 | 95.9 | 1.27 | 76.8 |
| TPBGL | 1 | -0.189 | 78.1 | 0.148 | 84 |
| TPBGL | 2 | 1.06 | 103 | 0.591 | 98.5 |
| TPBGL | 3 | -0.803 | 65.9 | -0.91 | 93.6 |
| TRAF3IP2-AS1 | 1 | 2.64 | 134 | 1.67 | 96.8 |
| TRAF3IP2-AS1 | 2 | 3.1 (active) | 144 | 2.45 | 84.1 |
| TRAF3IP2-AS1 | 3 | 0.403 | 89.9 | 0.875 | 79.8 |
| PDZRN3 | 1 | -0.799 | 66 | -1.22 | 102 |
| PDZRN3 | 2 | -1.15 | 59.1 | -1.49 | 97.7 |
| PDZRN3 | 3 | -0.765 | 66.7 | -0.653 | 88.5 |
| UGT2B17 | 1 | -0.64 | 69.2 | -0.863 | 97 |
| UGT2B17 | 2 | -0.251 | 76.9 | -0.592 | 100 |
| UGT2B17 | 3 | -0.481 | 72.3 | -0.888 | 102 |
| DHRSX | 1 | -0.0721 | 80.5 | -0.509 | 103 |
| DHRSX | 2 | 0.761 | 97 | 0.856 | 86.5 |
| DHRSX | 3 | 1.36 | 109 | 1.13 | 90.3 |
| SBNO1 | 1 | -0.057 | 80.8 | 1.44 | 61.8 |
| SBNO1 | 2 | 2.3 | 128 | 1.98 | 84.6 |
| SBNO1 | 3 | 1.33 | 108 | 0.868 | 96.3 |
| LEKR1 | 1 | 0.0708 | 83.3 | 0.741 | 76.6 |
| LEKR1 | 2 | -1.37 | 54.7 | -0.495 | 69.6 |
| LEKR1 | 3 | 1.59 | 113 | 2.01 | 74.7 |
| ARID3C | 1 | 0.406 | 90 | 0.552 | 86.9 |
| ARID3C | 2 | 1.67 | 115 | 0.703 | 107 |
| ARID3C | 3 | 0.865 | 99.1 | 0.343 | 101 |
| GPRC5C | 1 | 0.675 | 95.3 | 0.126 | 103 |
| GPRC5C | 2 | 2.84 | 138 | 2.66 | 76.7 |
| GPRC5C | 3 | 1.69 | 116 | 0.93 | 101 |
| TNFRSF10A-DT | 1 | -1.41 | 53.8 | -0.808 | 74.4 |
| TNFRSF10A-DT | 2 | 0.247 | 86.8 | 0.655 | 81.6 |
| TNFRSF10A-DT | 3 | 0.328 | 88.4 | 0.47 | 87.3 |
| RAI14 | 1 | -0.733 | 67.3 | -0.759 | 91.9 |
| RAI14 | 2 | -0.0284 | 81.3 | 0.446 | 80.8 |
| RAI14 | 3 | 1.56 | 113 | 1.02 | 96.4 |
| MRPL3 | 1 | 0.597 | 93.8 | 0.123 | 101 |
| MRPL3 | 2 | 0.117 | 84.2 | -0.0492 | 95.3 |
| MRPL3 | 3 | 1.15 | 105 | 1.14 | 86.9 |
| ANKDD1B | 1 | -0.697 | 68 | -1.15 | 103 |
| ANKDD1B | 2 | 2.14 | 124 | 1.4 | 96 |
| ANKDD1B | 3 | 0.396 | 89.8 | -0.0206 | 101 |

Entries above with an active call (4):
| target gene | reagent | total luciferase, z-score | total luciferase, % of control | luciferase per cell, z-score | viable cells, % of control |
| --- | --- | --- | --- | --- | --- |
| ERCC8 | 2 | 3.56 (active) | 153 | 2.21 | 95.3 |
| UPK3B | 2 | 3.02 (active) | 142 | 2.66 | 78.6 |
| TEX56P | 2 | 3.59 (active) | 153 | 3.54 | 67.5 |
| TRAF3IP2-AS1 | 2 | 3.1 (active) | 144 | 2.45 | 84.1 |
